From article PMC12362813
No constants are given. Whether binding was seen depends on the method and setting. Binding seen in cells or lysates may run through a third protein. Some entries that bind do so weakly or less than the wild type. For part of these data: Sequences can lack the tags named with a protein.

By UniProt entry, the sequences of proteins in these tests, tags left out. Where a name states a change or a piece, a line headed by the entry shows the natural chain unless it says otherwise. Residues count along the entry.
UniProt Q86WV6: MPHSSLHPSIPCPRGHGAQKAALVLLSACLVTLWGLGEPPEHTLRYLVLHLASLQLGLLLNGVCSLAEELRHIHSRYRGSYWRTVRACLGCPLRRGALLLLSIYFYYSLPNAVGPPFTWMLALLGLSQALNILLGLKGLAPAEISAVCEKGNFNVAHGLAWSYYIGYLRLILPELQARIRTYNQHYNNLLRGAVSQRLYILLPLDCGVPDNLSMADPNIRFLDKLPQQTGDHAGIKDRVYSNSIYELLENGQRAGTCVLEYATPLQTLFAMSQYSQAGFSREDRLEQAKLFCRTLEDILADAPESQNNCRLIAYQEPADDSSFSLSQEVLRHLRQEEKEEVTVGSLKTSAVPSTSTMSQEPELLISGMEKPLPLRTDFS
Flag-STING (amino acids 1–139): residues 1-139 of Q86WV6
UniProt Q9UNE7: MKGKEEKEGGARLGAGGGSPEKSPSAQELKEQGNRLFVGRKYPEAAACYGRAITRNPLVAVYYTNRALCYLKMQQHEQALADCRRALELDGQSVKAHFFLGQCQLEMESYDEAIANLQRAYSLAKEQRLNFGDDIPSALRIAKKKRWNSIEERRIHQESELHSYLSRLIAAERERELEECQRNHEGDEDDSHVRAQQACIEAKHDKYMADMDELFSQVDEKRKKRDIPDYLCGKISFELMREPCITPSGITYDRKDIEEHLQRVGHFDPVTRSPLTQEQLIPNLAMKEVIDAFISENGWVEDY

How the values were obtained:
Flag-STING [1] = target: Flag-STING (UniProt Q86WV6); assay: co-IP; HEK293T cells co-transfected with tagged plasmids; MG132 (10 µM) for 6 h before lysis; tag antibody (Flag, GFP or HA) overnight at 4 °C, protein A/G beads 2 h at 4 °C, three washes; Western blot; also with siBAG2 (Figure 3M)
Flag-STING [2] = target: Flag-STING (UniProt Q86WV6); assay: co-IP; HEK293T cells transfected with Flag-STING, HA-STUB1 and rising GFP-BAG2 (0.2, 1.0 or 4.0 µg); MG132 (10 µM) for 6 h; IP with Flag and HA antibodies; Western blot
Flag-STING [3] = target: Flag-STING (UniProt Q86WV6); assay: co-IP; SiHa cells (Figure 3L; also Figure S2G) transfected with Flag-STING, HA-STUB1 and rising GFP-BAG2 (0.2, 1.0 or 4.0 µg); MG132 (10 µM) for 6 h; IP with Flag and HA antibodies; Western blot
[4] = target: BAG2 (endogenous) (human (endogenous in HeLa and SiHa)) (UniProt O95816); assay: co-IP; endogenous proteins in HeLa and SiHa cells; IP with antibodies against STING, BAG2 or STUB1, IgG control; MG132 (10 µM) for 6 h; Western blot; also after siBAG2 knock-down (more STUB1 with STING)
GFP-BAG2 = GFP-BAG2 (UniProt O95816); assay: co-IP; HEK293T cells co-transfected with tagged plasmids; MG132 (10 µM) for 6 h before lysis; tag antibody (Flag, GFP or HA) overnight at 4 °C, protein A/G beads 2 h at 4 °C, three washes; Western blot; also with siBAG2 (Figure 3M)
[5] = target: STING (endogenous) (human (endogenous in HeLa and SiHa)) (UniProt Q86WV6); assay: co-IP; endogenous proteins in HeLa and SiHa cells; IP with antibodies against STING, BAG2 or STUB1, IgG control; MG132 (10 µM) for 6 h; Western blot; also after siBAG2 knock-down (more STUB1 with STING)
[6] = target: STING (endogenous) (human (endogenous in HeLa and SiHa)) (UniProt Q86WV6); assay: proximity ligation; Duolink PLA in fixed HeLa cells with primary antibodies to the two proteins, anti-mouse PLUS and anti-rabbit MINUS probes; confocal microscopy
[7] = target: T1, GFP-BAG2 (amino acids 101–211) (UniProt O95816); assay: co-IP; HEK293T cells co-transfected with tagged plasmids; MG132 (10 µM) for 6 h before lysis; tag antibody (Flag, GFP or HA) overnight at 4 °C, protein A/G beads 2 h at 4 °C, three washes; Western blot; also with siBAG2 (Figure 3M)
T1 sequence: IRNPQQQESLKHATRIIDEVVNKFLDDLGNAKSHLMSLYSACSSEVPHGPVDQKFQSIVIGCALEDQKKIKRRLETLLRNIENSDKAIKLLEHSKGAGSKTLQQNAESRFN

[8] = target: Flag-STING (amino acids 1–139) (UniProt Q86WV6); assay: as above

| Substance | binding (Flag-STING [1]) | binding (GFP-BAG2) | further results |
| --- | --- | --- | --- |
| STING (endogenous) (from UniProt Q86WV6 1-379) |  |  | binding [4]: binds |
| GFP-BAG2 I188A (from UniProt O95816 1-211) | binds |  |  |
| Flag-STING W34A (from UniProt Q86WV6 1-379) |  | binds |  |
| STUB1 (endogenous) (from UniProt Q9UNE7 1-303) (enzyme) |  |  | binding [5]: binds; binding [6]: binds |
| BAG2 (endogenous) (from UniProt O95816 1-211) |  |  | binding [5]: binds; binding [6]: binds |
| Flag-STING (from UniProt Q86WV6 1-379) |  | binds | binding [7]: binds |
| GFP-BAG2 (from UniProt O95816 1-211) | binds |  | binding [8]: binds |
| GFP-BAG2 I188A/E192A (from UniProt O95816 1-211) | binds weakly |  |  |
| Flag-STING L30A/W34A (from UniProt Q86WV6 1-379) |  | binds weakly |  |

Now from value to substance, other results behind:

| binding (Flag-STING [1]) | binding (GFP-BAG2) | Substance | further results |
| --- | --- | --- | --- |
| binds |  | HA-STUB1 (from UniProt Q9UNE7 1-303) (enzyme) | binding (Flag-STING [2]): binds; binding (Flag-STING [3]): binds |
|  | binds | Flag-STING L30A (from UniProt Q86WV6 1-379) |  |
| binds |  | GFP-BAG2 E192A (from UniProt O95816 1-211) |  |
